Results from PubChem BioAssay AID540256 (National Center for Advancing Translational Sciences (NCATS), 2011).
Hit rate of the full screen: of about 300,000 compounds, about 3,700 (1.2%) were called active. The shares of active, inactive and inconclusive entries below differ from those in the screen. Calls follow the shape of the full dose curve; tested in HEK293 cells. A potency beside an inconclusive call is a rough fit, not a confirmed value.

Experiment: qHTS for Inhibitors of binding or entry into cells for Lassa Virus; also: nearly all actives have a fitted effect of over 50% in size
Settings: Lassa virus pseudotype entry inhibition, cell reporter; activity change, negative = inhibition: at 37.9 µM (top of the series) unless noted
% is scaled to controls: 0 for no effect and ±100 for the full control effect; potency is read from the fitted curve at half-maximal effect.

**Q.** Which “activity change, negative = inhibition” value does the source give for `Cc1cccc(-c2nc(CN3CCCC(C(=O)NC4CCCC4)C3)c(C)o2)c1` (stereo not given) here?
**A.** inactive: 7.49%

**Q.** For `N#CCc1c(C#N)c(N)nc(N2CCCC(O)C2)c1C#N` (stereo not given), which “activity change, negative = inhibition” value is on record?
**A.** inactive: 4.8%

**Q.** For `CN(CC(=O)Nc1ccccc1Cl)C(=O)CSc1nc2ccccc2s1`, which “activity change, negative = inhibition” value is on record?
**A.** inactive: -15.4%

**Q.** With `Cc1sc2ncnc(N3CCC(C(=O)NNC(=O)COc4ccccc4Cl)CC3)c2c1C` as the molecule, how does the “activity change, negative = inhibition” value read?
**A.** inactive: 5.31%

**Q.** With `Nc1nonc1C(=O)N/N=C/c1ccc([N+](=O)[O-])o1` as the molecule, how does the Potency read?
**A.** inconclusive: 28.2 µM [inhibitor, single point]

**Q.** With `COCCN(C(=O)CSc1nnc(C)n1Cc1ccccc1)c1c(N)n(Cc2ccccc2)c(=O)[nH]c1=O` as the molecule, how does the “activity change, negative = inhibition” value read?
**A.** inactive: 1.16%

**Q.** For `O=C(Cc1ccccc1[N+](=O)[O-])NCc1ccc(Cl)cc1`, which Potency is on record?
**A.** inconclusive: 0.794 µM [activator, full curve, poor fit]

**Q.** With `COc1ccc(-c2cc(=O)oc3cc(OCC(C)=O)ccc23)cc1` as the molecule, how does the Potency read?
**A.** inconclusive: 7.08 µM [inhibitor, partial curve, poor fit]

**Q.** Which “activity change, negative = inhibition” value does the source give for `COc1ccc(CNC(=O)Cn2c(=O)n3nc(-c4ccc(OC)cc4)nc3c3ccccc32)cc1` here?
**A.** inactive: -5.17% [at 46.1 µM]

**Q.** Which Potency does the source give for `COc1ccc2nc3cc(Cl)ccc3c(Nc3ccc(O)c(CN4CCN(C)CC4)c3)c2c1` here?
**A.** inconclusive: 35.5 µM [inhibitor, single point]

**Q.** For `CC1=CC(C)(C)NC(=S)N1c1ccc(C)cc1C`, which Potency is on record?
**A.** inconclusive: 6.31 µM [inhibitor, full curve, poor fit]

**Q.** Which Potency does the source give for `O=C1NC(c2ccccc2)=C(c2nc3ccccc3s2)C(c2ccccc2)N1` (stereo not given) here?
**A.** active: 9.2 µM

**Q.** Which Potency does the source give for `COc1ccc(-n2cc(-c3ccccc3)c3c(=O)[nH]cnc32)cc1` here?
**A.** active: 20.6 µM

**Q.** Which Potency does the source give for `COc1ccc(C2=NN(S(C)(=O)=O)C(c3ccc4nccnc4c3)C2)cc1` (stereo not given) here?
**A.** inconclusive: 0.708 µM [activator, single point]

**Q.** With `N/C(Cc1ccc(Cl)cc1)=N\OC(=O)c1ccccc1` as the molecule, how does the Potency read?
**A.** inconclusive: 20 µM [inhibitor, partial curve, poor fit]

**Q.** With `Cc1ccccc1NS(=O)(=O)c1ccc2[nH]cc(C(=O)NCCc3ccccc3)c(=O)c2c1` as the molecule, how does the Potency read?
**A.** inconclusive: 35.5 µM [inhibitor, single point]

**Q.** Which “activity change, negative = inhibition” value does the source give for `Cc1cc(C)n(-c2nc3ccccc3nc2Nc2ccc3[nH]c(=O)[nH]c3c2)n1` here?
**A.** inactive: 7.43%

**Q.** With `COc1cc2c(cc1OC)CN(CC(=O)Nc1ccc(Cl)cc1Cl)CC2` as the molecule, how does the Potency read?
**A.** inconclusive: 12.6 µM [inhibitor, single point]

**Q.** For `COc1ccc(/C=C2\SC(=O)N(CCNC(=O)CCS(=O)(=O)c3ccc(C)cc3)C2=O)cc1`, which Potency is on record?
**A.** inconclusive: 3.55 µM [activator, single point]

**Q.** Which Potency does the source give for `Cc1ccccc1NC(=O)c1cc(-c2ccccc2)n(CCCN2CCOCC2)c1C` here?
**A.** inconclusive: 14.1 µM [inhibitor, single point]

**Q.** For `COc1ccc(C)cc1-n1c(N)c(C#N)c(C#N)c1-c1ccc(OC)c(OC)c1OC`, which “activity change, negative = inhibition” value is on record?
**A.** inactive: -13.1%

**Q.** For `Cc1cccc(-c2noc(C3CCCCC3)n2)c1`, which Potency is on record?
**A.** inconclusive: 16.4 µM [activator, single point]

**Q.** With `O=S1(=O)c2ccc(Br)cc2O[C@H]2CCN1C2` as the molecule, how does the Potency read?
**A.** inconclusive: 7.91 µM [activator, partial curve, poor fit]

**Q.** Which Potency does the source give for `C=CCNC(=S)/N=c1\sccn1C` here?
**A.** inconclusive: 32.6 µM [activator, partial curve, poor fit]

**Q.** Which Potency does the source give for `COC(=O)c1ccc(CCc2cc(O)ccc2O)cc1` here?
**A.** active: 12.6 µM

**Q.** With `CC(C)CC1C(=O)N(Cc2cn(CC3CCCCC3)nn2)CCS(=O)(=O)N1Cc1ccc(-c2ccncc2)cc1` (stereo not given) as the molecule, how does the Potency read?
**A.** active: 14.1 µM

**Q.** For `CCn1nc(C(=O)Nc2ccc3nc(C)sc3c2)c2ccccc2c1=O`, which “activity change, negative = inhibition” value is on record?
**A.** inactive: -58.4%

**Q.** With `Cc1ccc(N(CC(=O)NCCc2ccccc2)S(=O)(=O)c2c(C)noc2C)cc1` as the molecule, how does the Potency read?
**A.** inconclusive: 2.91 µM [inhibitor, partial curve, poor fit]

**Q.** For `COc1ccc(/C=N/NC(=O)CCc2ccccc2)cc1O`, which Potency is on record?
**A.** inconclusive: 2.59 µM [inhibitor, full curve]

**Q.** With `CN(C)CCCNC(=O)/C(=C\c1ccc(-c2ccc(Br)cc2)o1)NC(=O)c1ccccc1` as the molecule, how does the Potency read?
**A.** inconclusive: 29.1 µM [inhibitor, single point]

**Q.** Which “activity change, negative = inhibition” value does the source give for `CCCCS/C(N)=N/N=C/c1cc(C)ccc1O` here?
**A.** inactive: 16.8%

**Q.** For `CC(C)(C)c1ccc(C(=O)N2[C@H](COCc3ccccc3)C=CS2(=O)=O)cc1`, which Potency is on record?
**A.** inconclusive: 0.0223 µM [activator, full curve, poor fit]

**Q.** Which Potency does the source give for `COc1ccc(CCNC(=O)COc2ccc(S(=O)(=O)N3CCOCC3)cc2C)cc1` here?
**A.** inconclusive: 0.355 µM [inhibitor, partial curve, poor fit]

**Q.** Which Potency does the source give for `CN(c1ccccc1)S(=O)(=O)c1cc(C(=O)c2nccn2C)ccc1Cl` here?
**A.** inconclusive: 29.1 µM [inhibitor, single point]

**Q.** For `CC(=O)c1sc2nc(-c3ccccc3)cc(C)c2c1N`, which “activity change, negative = inhibition” value is on record?
**A.** inactive: -7.21% [at 46.1 µM]

**Q.** For `O=C(/C=C/c1ccc(OC(F)F)cc1)OCC(=O)N1CCc2ccccc21`, which Potency is on record?
**A.** inconclusive: 15.8 µM [inhibitor, single point]

**Q.** With `CCOC(=O)C1CCN(C(c2cc3ccc(C)cc3[nH]c2=O)c2nnnn2C2CCCCC2)CC1` (stereo not given) as the molecule, how does the Potency read?
**A.** inconclusive: 25.9 µM [inhibitor, partial curve, poor fit]

**Q.** With `CCCCOC(=O)NC(NCC(O)c1ccccc1)(C(F)(F)F)C(F)(F)F` (stereo not given) as the molecule, how does the Potency read?
**A.** inconclusive: 6.51 µM [inhibitor, partial curve, poor fit]

**Q.** With `COCCn1c(C)cc(C(=O)CSc2ccc3ccccc3n2)c1C` as the molecule, how does the “activity change, negative = inhibition” value read?
**A.** inactive: -10.1%

**Q.** With `Cn1ncc2cc(NC(=S)NC(=O)c3ccccc3)ccc21` as the molecule, how does the Potency read?
**A.** inconclusive: 6.51 µM [activator, single point]
